Source: US20260224620A1
These are yes or no findings as the source states them, for the method shown. Some results given as binding are weak or reduced against the parent protein; the word gives no strength.

By UniProt entry, the sequences of proteins in these tests, tags left out. Where a name states a change or a piece, a line headed by the entry shows the natural chain unless it says otherwise.
UniProt Q08722: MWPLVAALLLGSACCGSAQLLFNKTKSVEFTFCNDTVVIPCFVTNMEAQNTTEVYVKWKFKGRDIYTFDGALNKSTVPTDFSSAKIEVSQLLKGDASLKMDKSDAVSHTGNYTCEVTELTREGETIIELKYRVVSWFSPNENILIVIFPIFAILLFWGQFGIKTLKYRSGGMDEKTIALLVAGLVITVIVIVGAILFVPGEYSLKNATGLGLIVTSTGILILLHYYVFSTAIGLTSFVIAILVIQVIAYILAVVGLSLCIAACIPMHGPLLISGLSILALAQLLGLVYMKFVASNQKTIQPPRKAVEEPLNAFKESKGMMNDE

Experiments:
[1] = target: Human CD47 (Q31P), full-length, expressed on cells (human) (UniProt Q08722); assay: flow cytometry on primary human T cells, 50 nM mSIRPα
[2] = target: Human CD47 (A30P), full-length, expressed on cells (human) (UniProt Q08722); assay: as above
[3] = target: Human CD47 (Q31P), full-length, expressed on cells (human) (UniProt Q08722); assay: flow cytometry on Jurkat cells with endogenous 47KO, 100 nM mSIRPα
[4] = target: Human CD47 (A30P), full-length, expressed on cells (human) (UniProt Q08722); assay: as above
[5] = target: Human CD47 (Q31P), full-length, expressed on cells (human) (UniProt Q08722); assay: flow cytometry on primary human T cells over-expressing full-length CD47 variants
[6] = target: Human CD47 (A30P-Q31A), full-length, expressed on cells (human) (UniProt Q08722); assay: as above
[7] = target: Human CD47 (A30P), full-length, expressed on cells (human) (UniProt Q08722); assay: as above
[8] = target: Yeast displayed CD47 Ig-like domain A30P in pFNT (human) (UniProt Q08722); assay: flow cytometry on yeast display with free CD47 N-terminus (pFNT)
[9] = target: Yeast displayed CD47 Ig-like domain Q31P in pFNT (human) (UniProt Q08722); assay: as above

Measured: binding

B1: Mouse SIRPα-hFc (Fc fusion, UniProt P97797 32-373, looked up, not shown: a dimerising Fc or GST)
chain: KELKVTQPEKSVSVAAGDSTVLNCTLTSLLPVGPIRWYRGVGPSRLLIYSFAGEYVPRIRNVSDTTKRNNMDFSIRISNVTPADAGIYYCVKFQKGSSEPDTEIQSGGGTEVYVLAKPSPPEVSGPADRGIPDQKVNFTCKSHGFSPRNITLKWFKDGQELHPLETTVNPSGKNVSYNISSTVRVVLNSMDVNSKVICEVAHITLDRSPLRGIANLSNFIRVSPTVKVTQQSPTSMNQVNLTCRAERFYPEDLQLIWLENGNVSRNDTPKNLTKNTDGTYNYTSLFLVNSSAHREDVVFTCQVKHDQQPAITRNHTVLGFAHSSDQGSMQTFPDNNATHNWN
binds: all assays above
